Reference: the supplement of paper PMC10849652
The other results are listed elsewhere or left out.

By UniProt entry, the sequences of proteins in these tests, tags left out. Where a name states a change or a piece, a line headed by the entry shows the natural chain unless it says otherwise.
UniProt Q9NPR2: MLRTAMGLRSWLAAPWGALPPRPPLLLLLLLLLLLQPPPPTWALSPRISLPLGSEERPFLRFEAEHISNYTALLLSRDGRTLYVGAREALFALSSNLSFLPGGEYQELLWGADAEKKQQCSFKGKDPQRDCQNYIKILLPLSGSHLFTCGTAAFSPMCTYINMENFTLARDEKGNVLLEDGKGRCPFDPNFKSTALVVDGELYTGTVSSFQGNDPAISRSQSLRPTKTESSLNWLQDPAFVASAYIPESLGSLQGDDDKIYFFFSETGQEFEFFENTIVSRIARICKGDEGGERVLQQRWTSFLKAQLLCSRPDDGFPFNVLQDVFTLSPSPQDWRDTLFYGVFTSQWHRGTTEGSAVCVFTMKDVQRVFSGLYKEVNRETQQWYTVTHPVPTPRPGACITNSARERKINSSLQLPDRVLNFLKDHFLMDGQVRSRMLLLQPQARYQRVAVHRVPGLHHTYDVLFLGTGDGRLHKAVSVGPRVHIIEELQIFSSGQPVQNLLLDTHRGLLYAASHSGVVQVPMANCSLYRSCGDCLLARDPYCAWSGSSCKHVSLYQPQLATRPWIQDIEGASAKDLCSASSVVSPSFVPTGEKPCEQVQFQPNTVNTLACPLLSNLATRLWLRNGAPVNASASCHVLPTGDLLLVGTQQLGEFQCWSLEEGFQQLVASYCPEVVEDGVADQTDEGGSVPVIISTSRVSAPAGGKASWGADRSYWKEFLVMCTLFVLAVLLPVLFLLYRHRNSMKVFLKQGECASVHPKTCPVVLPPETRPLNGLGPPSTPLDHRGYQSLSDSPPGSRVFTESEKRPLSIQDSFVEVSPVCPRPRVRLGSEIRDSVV
UniProt Q9NXA8: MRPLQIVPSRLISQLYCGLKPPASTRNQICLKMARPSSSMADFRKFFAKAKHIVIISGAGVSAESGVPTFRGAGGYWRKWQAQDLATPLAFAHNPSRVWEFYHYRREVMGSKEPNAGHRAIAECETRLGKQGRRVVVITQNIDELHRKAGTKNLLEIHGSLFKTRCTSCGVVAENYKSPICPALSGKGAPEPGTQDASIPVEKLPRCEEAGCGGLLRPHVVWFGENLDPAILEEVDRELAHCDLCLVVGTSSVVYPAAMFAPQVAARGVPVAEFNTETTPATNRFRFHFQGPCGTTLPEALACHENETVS
UniProt Q9NVA2: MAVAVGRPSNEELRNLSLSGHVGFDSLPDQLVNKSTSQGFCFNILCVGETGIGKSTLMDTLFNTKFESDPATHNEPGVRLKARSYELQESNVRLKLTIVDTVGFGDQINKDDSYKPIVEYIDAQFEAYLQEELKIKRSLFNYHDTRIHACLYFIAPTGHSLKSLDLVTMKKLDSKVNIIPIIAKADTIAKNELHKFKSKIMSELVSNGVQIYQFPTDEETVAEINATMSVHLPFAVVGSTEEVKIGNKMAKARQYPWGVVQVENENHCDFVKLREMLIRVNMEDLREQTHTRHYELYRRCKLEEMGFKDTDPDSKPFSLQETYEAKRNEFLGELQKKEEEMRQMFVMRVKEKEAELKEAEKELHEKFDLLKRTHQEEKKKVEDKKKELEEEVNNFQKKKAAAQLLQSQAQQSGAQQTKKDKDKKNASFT
UniProt Q96ST3: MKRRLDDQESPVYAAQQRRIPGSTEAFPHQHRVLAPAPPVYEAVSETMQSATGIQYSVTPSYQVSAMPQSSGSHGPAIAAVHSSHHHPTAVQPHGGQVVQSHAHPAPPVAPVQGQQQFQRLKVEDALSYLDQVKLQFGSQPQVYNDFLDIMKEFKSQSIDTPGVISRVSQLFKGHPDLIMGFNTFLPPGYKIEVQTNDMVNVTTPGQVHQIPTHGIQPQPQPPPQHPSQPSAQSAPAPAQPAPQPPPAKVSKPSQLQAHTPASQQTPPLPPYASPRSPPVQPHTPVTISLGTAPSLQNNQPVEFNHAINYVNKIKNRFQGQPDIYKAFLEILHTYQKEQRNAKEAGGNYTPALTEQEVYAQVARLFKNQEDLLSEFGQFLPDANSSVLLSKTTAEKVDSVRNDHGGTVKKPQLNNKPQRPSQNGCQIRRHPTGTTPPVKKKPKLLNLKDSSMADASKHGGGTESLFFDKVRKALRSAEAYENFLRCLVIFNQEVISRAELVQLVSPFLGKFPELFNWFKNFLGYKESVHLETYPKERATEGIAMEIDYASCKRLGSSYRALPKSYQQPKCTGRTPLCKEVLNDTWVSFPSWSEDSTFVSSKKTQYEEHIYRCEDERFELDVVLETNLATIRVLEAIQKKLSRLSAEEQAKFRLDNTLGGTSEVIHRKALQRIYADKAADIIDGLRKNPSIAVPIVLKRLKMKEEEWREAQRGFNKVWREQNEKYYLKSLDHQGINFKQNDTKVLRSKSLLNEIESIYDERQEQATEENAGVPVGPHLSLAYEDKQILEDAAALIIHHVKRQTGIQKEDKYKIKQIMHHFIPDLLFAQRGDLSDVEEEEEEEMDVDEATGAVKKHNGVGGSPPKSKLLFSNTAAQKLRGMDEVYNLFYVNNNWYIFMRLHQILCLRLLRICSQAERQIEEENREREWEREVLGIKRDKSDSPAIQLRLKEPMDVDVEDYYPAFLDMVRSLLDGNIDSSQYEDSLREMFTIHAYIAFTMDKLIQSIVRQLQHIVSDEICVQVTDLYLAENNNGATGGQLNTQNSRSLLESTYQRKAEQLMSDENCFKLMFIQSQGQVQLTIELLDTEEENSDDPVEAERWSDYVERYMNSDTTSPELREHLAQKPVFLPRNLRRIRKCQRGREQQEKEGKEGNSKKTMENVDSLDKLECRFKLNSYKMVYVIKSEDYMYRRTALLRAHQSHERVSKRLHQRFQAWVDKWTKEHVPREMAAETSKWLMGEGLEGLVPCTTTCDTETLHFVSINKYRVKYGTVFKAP
UniProt Q9H9S3, whole entry, looked up: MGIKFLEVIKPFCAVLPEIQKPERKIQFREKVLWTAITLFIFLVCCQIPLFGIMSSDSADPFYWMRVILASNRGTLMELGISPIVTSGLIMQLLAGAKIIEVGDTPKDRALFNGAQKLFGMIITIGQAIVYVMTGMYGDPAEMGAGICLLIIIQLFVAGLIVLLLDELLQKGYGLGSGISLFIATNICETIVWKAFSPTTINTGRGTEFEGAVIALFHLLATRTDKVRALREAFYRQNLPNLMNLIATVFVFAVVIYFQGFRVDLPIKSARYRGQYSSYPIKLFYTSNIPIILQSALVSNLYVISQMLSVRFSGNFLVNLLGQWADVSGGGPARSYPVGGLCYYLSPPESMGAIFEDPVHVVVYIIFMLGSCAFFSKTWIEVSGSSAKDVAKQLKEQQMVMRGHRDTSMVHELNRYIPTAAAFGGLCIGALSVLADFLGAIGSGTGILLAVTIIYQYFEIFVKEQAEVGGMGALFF
UniProt O43765: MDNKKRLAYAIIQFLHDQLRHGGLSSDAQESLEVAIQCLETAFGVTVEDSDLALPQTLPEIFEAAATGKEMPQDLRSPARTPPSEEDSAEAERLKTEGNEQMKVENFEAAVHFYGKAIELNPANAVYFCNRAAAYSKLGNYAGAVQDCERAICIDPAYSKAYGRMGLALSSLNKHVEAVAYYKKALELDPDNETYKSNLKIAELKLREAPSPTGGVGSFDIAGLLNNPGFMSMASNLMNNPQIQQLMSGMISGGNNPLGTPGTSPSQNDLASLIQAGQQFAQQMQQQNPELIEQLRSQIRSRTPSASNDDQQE
UniProt Q5FBB7: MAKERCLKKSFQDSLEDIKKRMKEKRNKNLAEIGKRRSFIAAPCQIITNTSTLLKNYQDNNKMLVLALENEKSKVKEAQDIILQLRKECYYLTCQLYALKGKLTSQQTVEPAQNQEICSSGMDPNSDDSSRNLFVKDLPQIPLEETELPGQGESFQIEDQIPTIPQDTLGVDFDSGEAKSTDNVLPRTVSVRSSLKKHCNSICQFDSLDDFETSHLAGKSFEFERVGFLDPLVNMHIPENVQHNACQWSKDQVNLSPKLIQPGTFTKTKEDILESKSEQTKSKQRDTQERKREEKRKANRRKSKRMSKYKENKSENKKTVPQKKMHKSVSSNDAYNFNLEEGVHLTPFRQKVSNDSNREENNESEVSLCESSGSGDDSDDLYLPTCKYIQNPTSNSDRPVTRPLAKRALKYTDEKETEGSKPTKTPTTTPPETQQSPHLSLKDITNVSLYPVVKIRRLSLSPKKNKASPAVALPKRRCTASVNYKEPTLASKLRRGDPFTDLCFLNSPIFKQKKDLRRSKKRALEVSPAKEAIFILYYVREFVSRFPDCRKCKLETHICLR
UniProt Q13435: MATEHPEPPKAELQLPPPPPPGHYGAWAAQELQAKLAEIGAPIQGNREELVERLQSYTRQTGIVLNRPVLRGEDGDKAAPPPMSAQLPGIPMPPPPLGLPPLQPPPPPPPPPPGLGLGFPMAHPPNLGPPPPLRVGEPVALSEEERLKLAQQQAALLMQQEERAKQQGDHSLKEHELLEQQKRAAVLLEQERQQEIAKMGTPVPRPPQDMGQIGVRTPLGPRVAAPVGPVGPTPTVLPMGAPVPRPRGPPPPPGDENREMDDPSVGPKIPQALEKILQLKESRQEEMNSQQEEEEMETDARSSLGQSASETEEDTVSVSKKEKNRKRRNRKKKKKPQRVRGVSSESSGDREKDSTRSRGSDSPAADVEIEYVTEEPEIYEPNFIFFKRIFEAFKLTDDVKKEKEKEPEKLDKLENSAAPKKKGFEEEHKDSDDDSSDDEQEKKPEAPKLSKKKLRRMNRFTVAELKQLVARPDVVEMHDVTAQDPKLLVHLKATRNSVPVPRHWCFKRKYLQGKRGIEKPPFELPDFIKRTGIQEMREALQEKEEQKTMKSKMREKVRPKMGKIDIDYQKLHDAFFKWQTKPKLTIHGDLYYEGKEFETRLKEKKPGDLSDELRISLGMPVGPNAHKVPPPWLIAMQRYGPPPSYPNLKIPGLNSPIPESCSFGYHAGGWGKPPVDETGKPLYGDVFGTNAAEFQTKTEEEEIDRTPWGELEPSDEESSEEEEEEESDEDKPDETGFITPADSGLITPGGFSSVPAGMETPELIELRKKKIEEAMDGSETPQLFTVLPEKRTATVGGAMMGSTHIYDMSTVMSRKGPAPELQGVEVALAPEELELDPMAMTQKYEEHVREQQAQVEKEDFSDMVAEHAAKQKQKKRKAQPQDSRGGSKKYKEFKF
UniProt Q99720, whole entry, looked up: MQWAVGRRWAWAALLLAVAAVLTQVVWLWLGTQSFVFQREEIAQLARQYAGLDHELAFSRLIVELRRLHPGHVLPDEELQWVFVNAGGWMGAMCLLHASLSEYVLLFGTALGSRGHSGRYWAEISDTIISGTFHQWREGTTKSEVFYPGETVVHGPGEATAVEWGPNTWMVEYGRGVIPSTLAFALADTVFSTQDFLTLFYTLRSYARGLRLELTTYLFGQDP
UniProt Q96ES7: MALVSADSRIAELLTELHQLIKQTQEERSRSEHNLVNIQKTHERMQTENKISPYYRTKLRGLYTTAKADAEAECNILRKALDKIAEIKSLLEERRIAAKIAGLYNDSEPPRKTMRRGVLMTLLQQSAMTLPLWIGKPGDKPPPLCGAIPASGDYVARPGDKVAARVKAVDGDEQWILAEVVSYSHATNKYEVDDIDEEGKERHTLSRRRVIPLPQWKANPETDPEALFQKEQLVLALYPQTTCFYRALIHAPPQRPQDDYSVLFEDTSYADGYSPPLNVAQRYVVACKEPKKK
UniProt Q9H173: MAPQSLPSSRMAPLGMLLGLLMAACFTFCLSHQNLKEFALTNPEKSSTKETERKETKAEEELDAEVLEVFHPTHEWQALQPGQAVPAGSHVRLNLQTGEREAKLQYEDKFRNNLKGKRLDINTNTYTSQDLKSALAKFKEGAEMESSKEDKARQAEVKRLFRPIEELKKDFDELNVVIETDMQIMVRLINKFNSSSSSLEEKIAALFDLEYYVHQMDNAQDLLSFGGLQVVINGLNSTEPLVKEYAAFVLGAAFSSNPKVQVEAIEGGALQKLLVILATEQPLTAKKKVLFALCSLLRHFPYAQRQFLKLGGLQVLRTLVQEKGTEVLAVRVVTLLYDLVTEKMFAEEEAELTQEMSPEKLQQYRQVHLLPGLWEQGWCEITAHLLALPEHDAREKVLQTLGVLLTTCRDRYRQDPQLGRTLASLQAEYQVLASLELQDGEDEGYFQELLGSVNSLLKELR
UniProt Q9UGK8: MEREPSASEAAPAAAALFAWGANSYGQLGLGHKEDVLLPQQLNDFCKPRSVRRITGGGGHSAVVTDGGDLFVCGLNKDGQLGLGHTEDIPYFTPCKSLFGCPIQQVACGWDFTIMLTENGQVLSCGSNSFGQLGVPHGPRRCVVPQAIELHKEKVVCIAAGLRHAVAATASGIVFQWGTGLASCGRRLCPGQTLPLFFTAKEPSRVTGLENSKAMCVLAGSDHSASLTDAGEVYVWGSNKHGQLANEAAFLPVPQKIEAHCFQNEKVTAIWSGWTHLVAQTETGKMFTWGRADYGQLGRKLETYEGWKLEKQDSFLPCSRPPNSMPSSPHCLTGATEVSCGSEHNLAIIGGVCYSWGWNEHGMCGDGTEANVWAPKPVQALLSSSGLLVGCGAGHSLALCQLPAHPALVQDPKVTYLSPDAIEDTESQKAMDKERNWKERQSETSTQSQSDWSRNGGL

How the values were obtained:
Experiment in all cases: log2 fold change, soluble protein after heating vs DMSO (PISA); higher = thermal stabilisation; K562 cells, 10 uM, 30 min; active = over 0.2 and 3.5 SD of the protein, either way, in both replicates (recomputed)
[1] = compound: CC1=C(C=C(C=C1)NC(=O)C2=CC(=CC=C2)C(C)(C)C#N)NC3=CC4=C(C=C3)N=CN(C4=O)C
Outline: (§1)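 K562 cells (2×10^6 cells/mL) were treated with 10 μM compound for 30 min, and aliquots were heated for 3 min over 48°C-58°C. Pooled aliquots were extracted in PBS with 0.5% NP-40 at 4°C, and the supernatant after 21,000xg for 90 min was measured by TMTpro 16plex LC-MS/MS with channel sums equalised. Reported thermal stability, relative to control samples and from duplicates, is a log2 fold change.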

[2] = compound: CC1=C(C=C(C=C1)NC(=O)C2=CC(=CC=C2)N(C)C)NC(=O)C3=CC=C(C=C3)O
Outline: as §1

[3] = compound: CC1=CC=C(C=C1)SC2=C3C=C(SC3=CN=C2)C(=O)N
Outline: as §1

[4] = compound: CC1=NC(=CC=C1)C2=C(N=C(N2)C(C)(C)C)C3=CC4=NC=CN=C4C=C3
Outline: as §1

[5] = compound: CCCCN(Cc1ccc(C(=O)NO)cc1)C(=O)Nc1ccccc1 [Nexturastat A]
Outline: as §1

[6] = compound: CCCS(=O)(=O)Nc1ccc(F)c(C(=O)c2c[nH]c3ncc(-c4ccc(Cl)cc4)cc23)c1F [vemurafenib]
Outline: as §1

[7] = compound: CCCS(=O)(=O)Nc1ccc(F)c(C(=O)c2c[nH]c3ncc(Cl)cc23)c1F
Outline: as §1

[8] = compound: CCCc1cc(C)[nH]c(=O)c1CNC(=O)c1cc(-c2ccnc(N3CCN(C)CC3)c2)cc2c1cnn2C(C)C
Outline: as §1

[9] = compound: CCN(CC)Cc1ccc2cc(COC(=O)Nc3ccc(C(=O)NO)cc3)ccc2c1 [givinostat]
Outline: as §1

[10] = compound: CCN(CCCOc1ccc2c(Nc3cc(CC(=O)Nc4cccc(F)c4)[nH]n3)ncnc2c1)CCOP(=O)(O)O [barasertib]
Outline: as §1

[11] = compound: CC[C@@H]1C(=O)N(C)c2cnc(Nc3ccc(C(=O)NC4CCN(C)CC4)cc3OC)nc2N1C1CCCC1
Outline: as §1

[12] = compound: CC[C@@H]1C(=O)N(C)c2cnc(Nc3ccc(C(=O)N[C@H]4CC[C@H](N5CCN(CC6CC6)CC5)CC4)cc3OC)nc2N1C(C)C [volasertib]
Outline: as §1

[13] = compound: CC[C@H](C)N1C=C(C2=C(C=C(C=C21)C3=CN=C(C=C3)N4CCNCC4)C(=O)NCC5=C(C=C(NC5=O)C)C)C
Outline: as §1

[14] = compound: CC[C@H](C)[C@@H](C(=O)N[C@@H]([C@@H](C)O)C(=O)N[C@@H](CC(C)C)C(=O)[C@]1(CO1)C)NC(=O)[C@H]([C@@H](C)CC)N(C)C(=O)C [epoxomicin]
Outline: as §1

[15] = compound: CCn1c(C(=O)N(C2CC2)C2CC2)cc2c3c(ncn3C)c(Nc3cc(C)n(C)n3)nc21
Outline: as §1

[16] = compound: CCn1cc(-c2ccnc3[nH]c(-c4cccc(CN(C)C)c4)cc23)c(-c2ccc(NC(=O)N(C)C)cc2)n1
Outline: as §1

[17] = compound: CN(C)CC(=O)Nc1ccc2[nH]c(=O)c3ccccc3c2c1
Outline: as §1

[18] = compound: CN(CCOC1=CC=C(C=C1)C[C@H]2C(=O)NC(=O)S2)C3=CC=CC=N3 (racemic) [rosiglitazone]
Outline: as §1

[19] = compound: CN1C2=C(C3=C1C(=O)N(N=C3)CC4=CC(=CC=C4)N)SC(=C2)S(=O)C
Outline: as §1

[20] = compound: CN1CCC(CNc2ccc3ncc(-c4cccc(OC(F)(F)F)c4)n3n2)CC1
Outline: as §1

Measured: log2 fold change

SEMA4B (UniProt Q9NPR2)
inactive: [1] -0.022 | [2] -0.068 | [3] 0.056 | [4] -0.046 | [5] 0.021 | [6] -0.056 | [7] -0.002 | [8] -0.038 | [9] -0.115 | [10] 0.03 | [11] -0.034 | [12] 0.042 | [13] -0.068 | [14] 0.027 | [15] 0.013 | [16] -0.028 | [17] -0.079 | [18] -0.013 | [19] 0.009 | [20] -0.19

SIRT5 (UniProt Q9NXA8)
inactive: [1] 0.053 | [2] 0.118 | [3] -0.003 | [4] -0.134 | [5] -0.015 | [6] 0 | [7] 0.028 | [8] 0.038 | [9] 0.014 | [10] 0.119 | [11] -0.019 | [12] -0.083 | [13] 0.009 | [14] -0.009 | [15] 0.015 | [16] -0.063 | [17] -0.06 | [18] -0.038 | [19] -0.043 | [20] 0.059

SEPTIN11 isoform 2 (UniProt Q9NVA2)
inactive: [1] -0.027 | [2] 0 | [3] 0.007 | [4] 0.015 | [5] -0.01 | [6] -0.019 | [7] 0.021 | [8] 0.025 | [9] -0.015 | [10] -0.009 | [11] 0.034 | [12] 0.031 | [13] -0.012 | [14] 0.022 | [15] -0.012 | [16] -0.016 | [17] -0.015 | [18] -0.008 | [19] -0.056 | [20] 0.02

SIN3A (UniProt Q96ST3)
inactive: [1] -0.018 | [2] -0.111 | [3] -0.069 | [4] -0.006 | [5] 0.07 | [6] -0.057 | [7] 0.114 | [8] 0.004 | [9] -0.081 | [10] 0.12 | [11] -0.057 | [12] -0.322 | [13] 0.127 | [14] 0.033 | [15] 0.013 | [16] 0.165 | [17] 0.11 | [18] 0.047 | [19] 0.001 | [20] -0.252

SEC61A2 (UniProt Q9H9S3)
inactive: [1] 0.065 | [2] 0 | [3] 0.016 | [4] -0.04 | [5] -0.106 | [6] 0.045 | [7] 0.039 | [8] -0.098 | [9] -0.029 | [10] -0.007 | [11] 0.05 | [12] 0.017 | [13] -0.063 | [14] -0.023 | [15] -0.004 | [16] 0.011 | [17] 0.034 | [18] 0.026 | [19] -0.047 | [20] 0.079

SGTA (UniProt O43765)
inactive: [1] 0.008 | [2] -0.051 | [3] 0.028 | [4] 0.044 | [5] -0.043 | [6] 0.018 | [7] 0.059 | [8] -0.031 | [9] 0.016 | [10] 0.048 | [11] -0.05 | [12] -0.159 | [13] 0.053 | [14] 0.063 | [15] 0 | [16] -0.015 | [17] 0.015 | [18] 0.027 | [19] -0.055 | [20] -0.082

SGO1 (UniProt Q5FBB7)
inactive: [1] -0.031 | [2] -0.009 | [3] -0.015 | [4] -0.041 | [5] 0.166 | [6] 0.007 | [7] -0.004 | [8] -0.029 | [9] 0.026 | [10] 0.031 | [11] 0.008 | [12] 0.054 | [13] 0.052 | [14] 0.028 | [15] 0.003 | [16] -0.092 | [17] -0.006 | [18] 0.02 | [19] -0.05 | [20] 0.014

SF3B2 (UniProt Q13435)
inactive: [1] 0.05 | [2] -0.025 | [3] -0.019 | [4] -0.05 | [5] 0.104 | [6] 0.021 | [7] 0.01 | [8] 0.055 | [9] -0.005 | [10] -0.025 | [11] 0.058 | [12] -0.038 | [13] 0.019 | [14] -0.086 | [15] 0.005 | [16] 0.1 | [17] 0 | [18] -0.03 | [19] 0.102 | [20] 0.062

SIGMAR1 (UniProt Q99720)
inactive: [1] -0.035 | [2] 0.034 | [3] -0.047 | [4] 0.074 | [5] 0.04 | [6] -0.044 | [7] 0.038 | [8] -0.051 | [9] -0.002 | [10] 0.024 | [11] 0.017 | [12] 0.025 | [13] -0.032 | [14] 0.01 | [15] -0.03 | [16] -0.128 | [17] -0.017 | [18] 0.034 | [19] -0.053 | [20] 0.069

SIRT6 (UniProt Q8N6T7)
inactive: [1] 0.053 | [2] -0.018 | [3] 0.095 | [4] 0.105 | [5] -0.087 | [6] 0.074 | [7] 0.09 | [8] 0.084 | [9] 0.134 | [10] 0.098 | [11] -0.236 | [12] 0.001 | [13] -0.231 | [14] -0.004 | [15] -0.022 | [16] -0.082 | [17] 0.076 | [18] 0.167 | [19] 0.077 | [20] 0.021

Retrieved one by one from the list above, 2 records:
SIRT6 (UniProt Q8N6T7)
inactive: [1] 0.053 | [2] -0.018 | [3] 0.095 | [4] 0.105 | [5] -0.087 | [6] 0.074 | [7] 0.09 | [8] 0.084 | [9] 0.134 | [10] 0.098 | [11] -0.236 | [12] 0.001 | [13] -0.231 | [14] -0.004 | [15] -0.022 | [16] -0.082 | [17] 0.076 | [18] 0.167 | [19] 0.077 | [20] 0.021

SGTA (UniProt O43765)
inactive: [1] 0.008 | [2] -0.051 | [3] 0.028 | [4] 0.044 | [5] -0.043 | [6] 0.018 | [7] 0.059 | [8] -0.031 | [9] 0.016 | [10] 0.048 | [11] -0.05 | [12] -0.159 | [13] 0.053 | [14] 0.063 | [15] 0 | [16] -0.015 | [17] 0.015 | [18] 0.027 | [19] -0.055 | [20] -0.082

Later entries

SGF29 (UniProt Q96ES7)
inactive: [1] -0.009 | [2] -0.003 | [3] 0.003 | [4] 0.011 | [5] 0.014 | [6] 0.108 | [7] 0.073 | [8] -0.032 | [9] 0.096 | [10] 0.037 | [11] 0.025 | [12] 0.008 | [13] 0.022 | [14] 0.018 | [15] -0.059 | [16] -0.12 | [17] 0.059 | [18] 0.006 | [19] -0.051 | [20] 0.049

SEPTIN9 (UniProt Q9UHD8)
inactive: [1] 0.007 | [2] -0.021 | [3] 0 | [4] -0.024 | [5] -0.043 | [6] 0.009 | [7] -0.018 | [8] -0.06 | [9] 0.01 | [10] 0.033 | [11] -0.001 | [12] 0.011 | [13] 0.011 | [14] 0.043 | [15] -0.021 | [16] -0.008 | [17] 0.021 | [18] 0.044 | [19] -0.045 | [20] -0.016

SF1 isoform 6 (UniProt Q15637)
inactive: [1] -0.177 | [2] -0.14 | [3] 0.112 | [4] -0.005 | [5] 0.006 | [6] -0.039 | [7] 0.076 | [8] -0.042 | [9] 0.14 | [10] -0.065 | [11] -0.046 | [12] -0.055 | [13] 0.006 | [14] -0.092 | [15] -0.032 | [16] 0.004 | [17] -0.039 | [18] -0.025 | [19] -0.048 | [20] 0.001

SIL1 (UniProt Q9H173)
inactive: [1] -0.039 | [2] -0.041 | [3] -0.062 | [4] -0.015 | [5] 0.034 | [6] -0.009 | [7] -0.085 | [8] 0.019 | [9] 0.003 | [10] -0.028 | [11] 0.01 | [12] -0.046 | [13] -0.035 | [14] 0.096 | [15] 0.01 | [16] 0.035 | [17] -0.039 | [18] -0.047 | [19] 0.055 | [20] 0.106

SERGEF (UniProt Q9UGK8)
inactive: [1] -0.006 | [2] -0.263 | [3] -0.088 | [4] 0.003 | [5] -0.148 | [6] 0.106 | [7] 0.139 | [8] 0.009 | [9] 0.093 | [10] -0.015 | [11] 0 | [12] -0.008 | [13] -0.016 | [14] -0.002 | [15] -0.027 | [16] 0.011 | [17] -0.006 | [18] -0.009 | [19] 0.076 | [20] -0.129
